Results: PMC1919423
No constants are given. Whether binding was seen depends on the method and setting. Some binding calls cover weakened binding; strength is not graded here.

Amino acid sequences for entries named in this document (tags omitted). Residues count along the entry.
UniProt P05161, residues 1-157: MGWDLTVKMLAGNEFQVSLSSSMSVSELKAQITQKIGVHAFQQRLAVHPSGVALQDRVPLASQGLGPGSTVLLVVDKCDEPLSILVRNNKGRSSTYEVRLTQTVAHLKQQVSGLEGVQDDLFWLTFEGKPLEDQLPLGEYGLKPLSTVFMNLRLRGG
UniProt P56399: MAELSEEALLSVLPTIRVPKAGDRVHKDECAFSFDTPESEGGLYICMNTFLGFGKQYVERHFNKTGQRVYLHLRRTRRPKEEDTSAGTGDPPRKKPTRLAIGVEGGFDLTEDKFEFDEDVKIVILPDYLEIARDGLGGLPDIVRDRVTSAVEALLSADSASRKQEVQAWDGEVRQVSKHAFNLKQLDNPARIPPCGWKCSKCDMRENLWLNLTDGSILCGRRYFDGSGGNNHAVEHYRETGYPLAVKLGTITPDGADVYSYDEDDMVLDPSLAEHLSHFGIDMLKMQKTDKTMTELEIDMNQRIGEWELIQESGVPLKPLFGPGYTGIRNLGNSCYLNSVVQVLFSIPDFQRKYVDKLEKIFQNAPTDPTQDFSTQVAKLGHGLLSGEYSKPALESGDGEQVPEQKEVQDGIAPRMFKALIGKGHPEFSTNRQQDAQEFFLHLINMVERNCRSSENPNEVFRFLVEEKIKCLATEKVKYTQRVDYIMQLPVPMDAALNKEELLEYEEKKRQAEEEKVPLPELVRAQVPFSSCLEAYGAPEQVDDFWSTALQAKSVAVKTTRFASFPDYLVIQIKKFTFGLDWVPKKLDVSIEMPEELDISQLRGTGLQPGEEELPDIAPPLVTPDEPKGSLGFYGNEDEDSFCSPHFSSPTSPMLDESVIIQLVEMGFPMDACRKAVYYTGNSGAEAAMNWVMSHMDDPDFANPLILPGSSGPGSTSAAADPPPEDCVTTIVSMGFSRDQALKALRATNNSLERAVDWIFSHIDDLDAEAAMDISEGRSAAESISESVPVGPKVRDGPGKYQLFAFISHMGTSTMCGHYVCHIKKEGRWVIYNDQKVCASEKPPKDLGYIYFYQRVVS
UniProt Q9JMA1: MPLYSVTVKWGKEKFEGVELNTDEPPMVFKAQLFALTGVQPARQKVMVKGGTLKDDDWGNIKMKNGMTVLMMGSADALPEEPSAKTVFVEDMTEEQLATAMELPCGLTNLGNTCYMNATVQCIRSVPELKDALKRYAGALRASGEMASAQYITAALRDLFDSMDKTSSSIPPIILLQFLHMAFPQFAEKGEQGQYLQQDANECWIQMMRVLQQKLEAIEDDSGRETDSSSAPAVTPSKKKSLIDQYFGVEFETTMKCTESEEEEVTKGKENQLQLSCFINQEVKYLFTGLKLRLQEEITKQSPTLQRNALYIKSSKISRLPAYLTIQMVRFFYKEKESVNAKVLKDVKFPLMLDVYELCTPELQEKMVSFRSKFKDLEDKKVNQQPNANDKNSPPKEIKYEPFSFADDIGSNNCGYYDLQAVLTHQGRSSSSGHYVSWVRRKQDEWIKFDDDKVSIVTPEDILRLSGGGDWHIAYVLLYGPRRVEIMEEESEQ

Biological target: N-terminally HA-tagged ISG15VS (human) (UniProt P05161)
Assay: covalent labelling with active-site directed probe (anti-HA immunoblot); 10 µg of EL4 subcellular fraction protein incubated with 0.2 µg of HA-ISG15VS in 10 µl for two hours at room temperature; proteasome inhibited with MG132 (50 µM); only the target purified

Row | binding | Substance
1 | binds | USP5 of the five-hour supernatant of EL4 cells (from UniProt P56399 1-858) (enzyme)
2 | binds | USP14 of the proteasome-enriched fraction of EL4 cells (from UniProt Q9JMA1 1-493) (enzyme)
